No constants are given. Whether binding was seen depends on the method and setting. Binding can be weak; no strength is given.

Sequences of proteins named here, by UniProt entry; tags and fusion partners are left off. A change or cut given only in a name is not applied to a line headed by its entry.
UniProt Q02574: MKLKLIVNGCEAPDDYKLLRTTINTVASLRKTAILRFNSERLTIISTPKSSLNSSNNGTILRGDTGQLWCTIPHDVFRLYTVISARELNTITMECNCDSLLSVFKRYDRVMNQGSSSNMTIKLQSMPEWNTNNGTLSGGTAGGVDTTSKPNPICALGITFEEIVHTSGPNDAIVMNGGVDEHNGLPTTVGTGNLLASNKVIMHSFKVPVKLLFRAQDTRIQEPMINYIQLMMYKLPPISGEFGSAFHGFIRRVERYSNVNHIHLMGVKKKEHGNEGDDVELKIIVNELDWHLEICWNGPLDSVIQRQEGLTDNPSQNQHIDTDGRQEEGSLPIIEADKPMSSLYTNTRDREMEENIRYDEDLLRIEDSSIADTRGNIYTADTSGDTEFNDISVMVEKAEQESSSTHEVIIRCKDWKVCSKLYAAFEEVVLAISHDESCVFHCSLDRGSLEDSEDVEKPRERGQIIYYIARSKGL

Assay in all cases: cryo-EM structure; purified Rad24-RFC 1.8 μM, 9–1-1 clamp 2.2 μM, double tailed DNA (5′- and 3′-recessed junctions) 2.7 μM, 0.5 mM ATPγS, 5 mM MgAcetate; ice-water bath 30 min; two conformations (clamp closed, clamp open) at 3.2 Å; both purified
In test [1] the target is T1, Ddc1 (subunit of the S.c. 9–1-1 clamp) (S. cerevisiae) (UniProt Q08949).
T1 sequence: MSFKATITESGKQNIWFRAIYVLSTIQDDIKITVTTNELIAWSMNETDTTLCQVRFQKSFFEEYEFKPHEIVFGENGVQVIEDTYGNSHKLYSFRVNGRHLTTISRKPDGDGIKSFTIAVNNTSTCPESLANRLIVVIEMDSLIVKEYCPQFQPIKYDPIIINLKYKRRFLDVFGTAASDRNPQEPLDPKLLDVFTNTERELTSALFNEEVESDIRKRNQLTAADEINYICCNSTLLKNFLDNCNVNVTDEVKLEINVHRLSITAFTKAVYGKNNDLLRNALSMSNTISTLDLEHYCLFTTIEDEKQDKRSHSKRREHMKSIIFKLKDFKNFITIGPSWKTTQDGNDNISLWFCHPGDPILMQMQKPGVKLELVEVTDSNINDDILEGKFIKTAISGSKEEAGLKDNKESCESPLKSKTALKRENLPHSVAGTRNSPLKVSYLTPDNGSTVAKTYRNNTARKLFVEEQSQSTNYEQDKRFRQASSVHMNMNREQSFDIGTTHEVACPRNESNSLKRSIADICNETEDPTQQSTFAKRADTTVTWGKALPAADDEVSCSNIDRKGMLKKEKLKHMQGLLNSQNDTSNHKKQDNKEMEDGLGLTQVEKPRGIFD

Test [2] deals with T2, Rad17 (subunit of the S.c. 9–1-1 clamp) (S. cerevisiae) (UniProt P48581).
T2 sequence: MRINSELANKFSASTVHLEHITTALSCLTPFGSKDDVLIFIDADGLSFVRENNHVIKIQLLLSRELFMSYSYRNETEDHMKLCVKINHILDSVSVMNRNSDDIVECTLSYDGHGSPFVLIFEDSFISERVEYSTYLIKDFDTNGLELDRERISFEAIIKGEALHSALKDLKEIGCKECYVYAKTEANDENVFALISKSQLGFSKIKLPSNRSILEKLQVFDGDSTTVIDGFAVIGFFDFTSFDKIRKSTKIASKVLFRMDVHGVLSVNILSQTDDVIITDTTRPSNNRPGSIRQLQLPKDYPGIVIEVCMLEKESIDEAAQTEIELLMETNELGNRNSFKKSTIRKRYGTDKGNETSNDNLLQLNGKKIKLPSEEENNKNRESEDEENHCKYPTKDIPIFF

For test [3], the target named is S.c. 9–1-1 DNA checkpoint clamp (Ddc1–Mec3–Rad17) (S. cerevisiae).

On to “His-PK-Mec3 (subunit of the S.c. 9–1-1 clamp) (from UniProt Q02574)”, for which the binding result in test [1] and in test [2] was “binds” throughout.

B1: Rfc2 (subunit of S.c. Rad24-RFC) (protein, UniProt P40348 1-353)
chain: MFEGFGPNKKRKISKLAAEQSLAQQPWVEKYRPKNLDEVTAQDHAVTVLKKTLKSANLPHMLFYGPPGTGKTSTILALTKELYGPDLMKSRILELNASDERGISIVREKVKNFARLTVSKPSKHDLENYPCPPYKIIILDEADSMTADAQSALRRTMETYSGVTRFCLICNYVTRIIDPLASRCSKFRFKALDASNAIDRLRFISEQENVKCDDGVLERILDISAGDLRRGITLLQSASKGAQYLGDGKNITSTQVEELAGVVPHDILIEIVEKVKSGDFDEIKKYVNTFMKSGWSAASVVNQLHEYYITNDNFDTNFKNQISWLLFTTDSRLNNGTNEHIQLLNLLVKISQL
On to B1, for which the binding entry in test [3] is given as “binds”.

B2: Rfc4 (subunit of S.c. Rad24-RFC) (protein, UniProt P40339 1-323)
chain: MSKTLSLQLPWVEKYRPQVLSDIVGNKETIDRLQQIAKDGNMPHMIISGMPGIGKTTSVHCLAHELLGRSYADGVLELNASDDRGIDVVRNQIKHFAQKKLHLPPGKHKIVILDEADSMTAGAQQALRRTMELYSNSTRFAFACNQSNKIIEPLQSRCAILRYSKLSDEDVLKRLLQIIKLEDVKYTNDGLEAIIFTAEGDMRQAINNLQSTVAGHGLVNADNVFKIVDSPHPLIVKKMLLASNLEDSIQILRTDLWKKGYSSIDIVTTSFRVTKNLAQVKESVRLEMIKEIGLTHMRILEGVGTYLQLASMLAKIHKLNNKA
Turning to B2, the binding entry in test [3] is given as “binds”.

B3: Rad24 (subunit of S.c. Rad24-RFC) (protein, UniProt P32641 1-659)
chain: MDSTNLNKRPLLQYSLSSLGSQITKWSSSRPTSPVRKARSTENDFLSKQDTSSILPSINDDGGEQWYEKFKPNCLEQVAIHKRKLKDVQEALDAMFLPNAKHRILLLSGPSGCSKSTVIKELSKILVPKYRQNSNGTSFRSTPNEHKVTEFRGDCIVNDLPQMESFSEFLKGARYLVMSNLSLILIEDLPNVFHIDTRRRFQQLILQWLYSSEPLLPPLVICITECEIPENDNNYRKFGIDYTFSAETIMNKEILMHPRLKRIKFNPINSTLLKKHLKFICVQNMKMLKEKNKWNKRQEVIDYIAQETGDIRSAITTLQFWATSSGSLPISTRESTISYFHAIGKVIHGSHSTNNDNEMINNLFENSNNLLSKEDFKLGILENYNTFNKGEFSISDASSIVDCLSECDNMNGLPESNEYGLREVRKTFRNISKQGHNHGTVYFPREWKVRKLQNSFKVQAEDWLNVSLYKYNAVHSFRNITLEFGYYAPLIRKCQSYKKKYILYYLKNLPSGSSGPKQTMDKFSDIMKVENGIDVVDRIGGPIEALSVEDGLAPLMDNDSNNCDHLEDQKKERDRRLRMLIDQYERNVMMANDDLEDEETSFNDDPIVDSDSDNSNNIGNETFGRSDEDESLCEILSQRQPRKAPVISESLSDSDLEIL
B3: the binding entry in test [3] is given as “binds”.

B4: Rfc5 (subunit of S.c. Rad24-RFC) (protein, UniProt P38251 1-354)
chain: MSLWVDKYRPKSLNALSHNEELTNFLKSLSDQPRDLPHLLLYGPNGTGKKTRCMALLESIFGPGVYRLKIDVRQFVTASNRKLELNVVSSPYHLEITPSDMGNNDRIVIQELLKEVAQMEQVDFQDSKDGLAHRYKCVIINEANSLTKDAQAALRRTMEKYSKNIRLIMVCDSMSPIIAPIKSRCLLIRCPAPSDSEISTILSDVVTNERIQLETKDILKRIAQASNGNLRVSLLMLESMALNNELALKSSSPIIKPDWIIVIHKLTRKIVKERSVNSLIECRAVLYDLLAHCIPANIILKELTFSLLDVETLNTTNKSSIIEYSSVFDERLSLGNKAIFHLEGFIAKVMCCLD
Regarding B4, the binding entry in test [3] is reported as “binds”.

B5: Rfc3 (subunit of S.c. Rad24-RFC) (protein, UniProt P38629 1-340)
chain: MSTSTEKRSKENLPWVEKYRPETLDEVYGQNEVITTVRKFVDEGKLPHLLFYGPPGTGKTSTIVALAREIYGKNYSNMVLELNASDDRGIDVVRNQIKDFASTRQIFSKGFKLIILDEADAMTNAAQNALRRVIERYTKNTRFCVLANYAHKLTPALLSRCTRFRFQPLPQEAIERRIANVLVHEKLKLSPNAEKALIELSNGDMRRVLNVLQSCKATLDNPDEDEISDDVIYECCGAPRPSDLKAVLKSILEDDWGTAHYTLNKVRSAKGLALIDLIEGIVKILEDYELQNEETRVHLLTKLADIEYSISKGGNDQIQGSAVIGAIKASFENETVKANV
Turning to B5, the binding result in test [3] was “binds”.

For the origin of these results see article PMC9010301.
